# Test results taken from the supplement of paper PMC10338343.
# ± gives the standard deviation. Only a part is listed here, and it is no random draw. Many of these values have a large error.
# System: MIWI (PIWIL1) piRISC loaded with L1MC piRNA (30 nt)
# Experiment: pre-steady-state target cleavage rate (min^-1); MIWI and MILI are mouse PIWI proteins and EfPiwi is from a freshwater sponge; tags in brackets are library labels; higher = faster piRNA-guided slicing of the target
# Settings: guide: L1MC piRNA 5'p-UAACUAAAUACUAUGCAAGCUGUAGGUCCU; auxiliary factor: none (no GTSF1)
# Procedure, shortened: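 Cleave-'n-Seq: a transcribed, DNA-blocked target RNA library (0.1 nM) was mixed with 1 nM active affinity-purified piRISC carrying one synthetic guide, with or without 500 nM GTSF1 partner protein, in HEPES–potassium acetate buffer at 33 °C for 0–8 or 0–960 min. Uncleaved targets were sequenced and normalised to depth and to weakly complementary targets. Three trials were pooled, and k3 was capped at 0.0001 min^-1. The pre-steady-state cleavage rate came from a burst-and-steady-state fit.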
row,Sequence,pre-steady-state target cleavage rate
1,UCCUGGAUGUGCUUCCAUAGUAUUUAGUAA,0.000955 ± 0.0078
2,UCCUGGAUGUCGAUGCAGAGUAUUUAGUUA,0.000855 ± 0.006
3,UCCUGGAUGUCGAACCAUAGUAAUUAGUUA,0.000218 ± 0.02
4,UCCUGGAUGUCGAUGCAUACUUUUUAGUUA,0.000266 ± 0.024
5,UCCUGGUACAGCUUCCAUAGUAUUUUGUUA,0.00125 ± 0.0073
6,UCCUGGUACACGAUGCAUAGUAUUUUCAAA,0.00153 ± 0.0072
7,UCCUGGAUGAGCUUGCUAAGUAUUUAGUAA,0.00048 ± 0.0056
8,UCCUCCUGCAGCUUGCAUAGUAUUUAGUUA,0.0513 ± 0.0088
9,UCCUGGAUGACGUUGCAUAGUAUUUAGAAA,0.000464 ± 0.0057
10,UCCUGGAACAGCUUGCAUAGUAAAUUCAAA,0.000949 ± 0.0056
11,UCCUCCUUACAGCUUGCAUAGUAUUUAGUUA,0.0583 ± 0.011
12,UCCUGGAUGUCGAAGCAUCGUAUUUAGUUA,0.000606 ± 0.011
13,UCCUGGAUCAGCUUCGAUAGUAUUUAGAAA,0.000867 ± 0.006
14,UCCUGGAUGUCGAAGGAUAGUAUUUUGUUA,< 0.0001
15,UCCUGGAUGAGCUUCGAUAGUAUUUAGUAA,0.000874 ± 0.0065
16,UCCUGGAUGUCGAACCAUAGUAUUUCGUUA,0.000286 ± 0.016
17,UCCUGGAUGUCGUUCCAUACUAUUUAGUUA,0.000512 ± 0.012
18,UCCUGGAUCAGCUUGCACUAGUAUUUAGUUA,0.0013 ± 0.0037
19,UCCUGGAUCAGCUUGCUAUGUAUUUACAAA,0.00109 ± 0.0056
20,UCCUGGAUGUCGAACCAUAGUAUUUACGUUA,0.000175 ± 0.036
21,UCCUGGAUGUGCUUGCAUAGUAAAAAGUUA,0.000317 ± 0.011
22,UCCUCCUACAGCUUGCAUAAUAUUUAGUUA,0.0234 ± 0.0044
23,UCCUGGAUCAGCUUCGUUAGUAUUUACAAA,0.000888 ± 0.0076
24,UCCUGGAUGUCGAAGCAUAGCUAUUUAGUUA,0.000815 ± 0.0069

# For convenience, part of the list above.
row,Sequence,pre-steady-state target cleavage rate
11,UCCUCCUUACAGCUUGCAUAGUAUUUAGUUA,0.0583 ± 0.011
12,UCCUGGAUGUCGAAGCAUCGUAUUUAGUUA,0.000606 ± 0.011
